Counter-ions that a name gives are not always drawn. At least one compound was matched to its structure with a doubt left.
Tests used:
PC12 neuronal cell = experiment: Neuronal survival of hydrogen peroxide treated PC-12 cells; assay type: cell-based; settings: 1 mM H2O2 for 1 hour, 24 hours incubation, viable cells counted
Protocol: Neuronal Survival Experiments. For survival experiments, PC12 neuronal cell were seeded in 6-well plates at a density of 1×10^5 per well in Dulbecco's modified Eagle's medium (DMEM) supplemented with 1% fetal bovine serum (FBS) and 100 ng/ml nerve growth factor (NGF), herein after (“Media”), for 3 days. Media was changed every 3 days. Cells were treated in the presence or absence of 1 mM hydrogen peroxide (H2O2) for 1 hour in the presence or absence of either sildenafil Citrate, vardenafil, or tardalafil at 0.1-fold physiologic dose (0.5 μM, 0.3 μM and 0.4 μM, respectively), physiologic dose (5 μM, 3 μM and 4 μM, respectively) and 10-fold physiologic dose (50 μM, 30 μM and 40 μM, respectively). Treated cells were incubated for 24 hours at 37° C. Viable cells were detached and counted using an automated counter.

PDE-6 = settings: among FDA-approved PDE-5 inhibitors; cited from earlier work

Compound	protection against H2O2-induced cell death (neuronal viability) (PC12 neuronal cell)	selectivity for PDE-6 (PDE-6)
CCCc1nn(C)c2c(=O)[nH]c(-c3cc(S(=O)(=O)N4CCN(C)CC4)ccc3OCC)nc12 [sildenafil citrate]	protected against cell death in a significant manner	
CCCc1nc(C)c2c(=O)[nH]c(-c3cc(S(=O)(=O)N4CCN(CC)CC4)ccc3OCC)nn12 [vardenafil]		selective for PDE-6
